Reference: PubChem BioAssay AID686937 (Drosophila RNAi Screening Center, 2013)
In all, the deposit lists about 23,000 reagents; below is an unselected part of those with a known target gene and a result. 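Reduced-secretion tags in replicate 1 do not always agree with the z-scores; no criterion for assigning the tags was given.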 Reagents against one gene are numbered here. A plus sign joins genes that one reagent is predicted to hit. No sequences are given here. Not stated in the record: the amount of reagent.

- Purpose: 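Genes in the fly needed for secretion of protein constitutively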 (primary screen)
- System: Drosophila S2 cells expressing secreted horseradish peroxidase
- Reagents: long dsRNA against Drosophila genes
- Time to read-out: about 5.5 days (5 days dsRNA, then 12 h reporter induction)
- Challenge: reporter expression induced after 5 days of dsRNA, read 12 h later; inducer not stated
- Read-out: 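Chemiluminescent measurement of peroxidase in the medium 12 h after reporter induction, following 5 days of dsRNA, given as a z-score per plate; higher means more secretion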
- Reading the numbers: z-score: higher = more reporter secreted into medium

no.	target	reagent no.	z-score, replicate 1	z-score, replicate 2	z-score, replicate 3	z-score, replicate 4	phenotype, replicate 1
1	CG10147 (GeneID 38733)	1	0.19	0.14			
2	CheB98a (GeneID 50092)	1	0.39	0.33			
3	spartin (GeneID 40582)	1	0.52	0.62			
4	Ir94e (GeneID 42765)	1	-1.23	0.54	0.54	-0.91	
5	Ilk (GeneID 53573)	1	-0.21	-0.88			
6	CG14722 (GeneID 41419)	1	0.29	0.22			
7	CG17977 (GeneID 50251)	1	0.18	0.18			
8	Acam + CG17770	1	0.28	0.37			
9	Acam + CG17770	2	0.14	0.29			
10	Paip2 (GeneID 41591)	1	0.41	0.29			
11	Arf4 (GeneID 43823)	1	-5.2	-4.62			reduced secretion
12	CG17010 (GeneID 34650)	1	0.17	0.35			
13	Sdc (GeneID 37447)	1	-0.02	0.25			
14	CG34256 (GeneID 5740297)	1	0.6	0.6			
15	Or47b (GeneID 36212)	1	0.37	0.24			
16	crn (GeneID 31208)	1	-2.74	-3.44			reduced secretion
17	crn (GeneID 31208)	2	-2.37	-3.76			reduced secretion
18	crn (GeneID 31208)	3	-5.41	-4.95			reduced secretion
19	PVRAP (GeneID 38677)	1	0.28	0.47			
20	PVRAP (GeneID 38677)	2	0.43	0.13			
21	speck (GeneID 37867)	1	0.11	0.12			
22	ND-24L (GeneID 39926)	1	0.34	0.02			
23	Dyb (GeneID 36362)	1	0.19	0.44	0.53	0.37	
24	Dyb (GeneID 36362)	2	0.17	0.46			
25	Nmda1 (GeneID 36419)	1	0.26	0.17			
26	CG13339 (GeneID 36528)	1	0.16	0.32			
27	mthl13 (GeneID 246395)	1	0.76	0.21			
28	Rcc1 (GeneID 38669)	1	-0.32	-0.71			
29	CG2854 (GeneID 31219)	1	0.42	0.47			
30	corolla (GeneID 32739)	1	0.35	0.46			
31	Acp36DE (GeneID 35096)	1	0.26	0.31			
32	CG2901 (GeneID 31338)	1	0.53	0.68			
33	CG42634 + CG42635	1	0.16	0.24			
34	CG18745 (GeneID 59141)	1	0.11	0.28			
35	Su(dx) (GeneID 33379)	1	0.27	0.18			
36	CG13868 (GeneID 37302)	1	0.43	0.17			
37	CG10237 (GeneID 35222)	1	0.37	0.4			
38	mahe (GeneID 31707)	1	0.21	0.29			
39	sofe (GeneID 32016)	1	0.15	0.36			
40	CG15909 (GeneID 35572)	1	0.19	0.17			
41	msb1l (GeneID 35254)	1	0.38	0.39			
42	SelT (GeneID 33725)	1	0.3	0.06			
43	alphaTub84B (GeneID 40848)	1	-2.84	-1.67			reduced secretion
44	CG43104 (retired record) (GeneID 12798318)	1	0.67	0.22			
45	CG32040 (GeneID 317835)	1	0.6	0.61			
46	CG32040 (GeneID 317835)	2	1.12	0.09			
47	CG34367 (GeneID 5740879)	1	-0.03	0.37			
48	CG34367 (GeneID 5740879)	2	0.15	0.32			
49	fliI (GeneID 33110)	1	-0.7	0.35			
50	Asciz (GeneID 38381)	1	-0.57	-0.34			
51	AstA-R2 (GeneID 43393)	1	0.2	0.27			
52	CG13640 (GeneID 42967)	1	0.5	0.56			
53	SmydA-2 (GeneID 40075)	1	0.48	0.43			
54	t (GeneID 31863)	1	0.34	0.19			
55	Desat1 (GeneID 117369)	1	-4.89	-3.88			reduced secretion
56	CG12316 (GeneID 39650)	1	0.36	0.32			
57	TwdlD (GeneID 43210)	1	0.36	0.51			
58	Drsl6 (GeneID 38416)	1	0.41	0.31			
59	CG3793 (GeneID 34928)	1	0.35	0.35			
60	GstD4 (GeneID 48337)	1	-0.19	0.2			
61	Atg8a (GeneID 32001)	1	0.34	0.65			
62	CG7739 (GeneID 39684)	1	-0.07	0.17			
63	CG11986 (GeneID 41083)	1	0.17	0.27			
64	CG44251 (GeneID 36429)	1	0.21	0.06			
65	lush (GeneID 40136)	1	0.37	-4.15			
66	Csp (GeneID 40459)	1	0.36	0.04			
67	CG11570 (GeneID 39357)	1	0.28	0.23			
68	CG34124 (GeneID 4379887)	1	0.23	0.33			
69	snama (GeneID 37857)	1	0.63	0.33			
70	CG7071 + Muted	1	0.37	0.29			
71	rumi (GeneID 326122)	1	0.18	0.35			
72	TTLL3B (GeneID 33946)	1	0.2	-0.41			
73	MstProx (GeneID 40890)	1	0.33	0.42			
74	MstProx (GeneID 40890)	2	0.25	0.62			
75	GstD11 (GeneID 41512)	1	0.15	-0.17			
76	lms (GeneID 37322)	1	0.35	0.43			
77	Idgf2 (GeneID 34979)	1	0.49	0.27			
78	stil (GeneID 36380)	1	0.2	0.4			
79	Shawn + Tyler	1	0.28	0.27			
80	Shawn + Tyler	2	-0.05	0.33			
81	CG31544 (retired record) (GeneID 318792)	1	0.13	0.31			
82	CG31441 (GeneID 326139)	1	0.49	0.25			

Reprinted from above (12 entries):
no.	target	reagent no.	z-score, replicate 1	z-score, replicate 2	z-score, replicate 3	z-score, replicate 4	phenotype, replicate 1
5	Ilk (GeneID 53573)	1	-0.21	-0.88			
6	CG14722 (GeneID 41419)	1	0.29	0.22			
7	CG17977 (GeneID 50251)	1	0.18	0.18			
8	Acam + CG17770	1	0.28	0.37			
9	Acam + CG17770	2	0.14	0.29			
10	Paip2 (GeneID 41591)	1	0.41	0.29			
11	Arf4 (GeneID 43823)	1	-5.2	-4.62			reduced secretion
12	CG17010 (GeneID 34650)	1	0.17	0.35			
13	Sdc (GeneID 37447)	1	-0.02	0.25			
14	CG34256 (GeneID 5740297)	1	0.6	0.6			
15	Or47b (GeneID 36212)	1	0.37	0.24			
16	crn (GeneID 31208)	1	-2.74	-3.44			reduced secretion
